Measurements from article PMC7820495.
Results are given in words; binding and its absence hold for the method and conditions named. Binding seen in cells or lysates may run through a third protein. Some binding calls cover weakened binding; strength is not graded here.

Chains of the proteins cited; added tags and fusions are not shown. Lines headed by an entry give the natural chain unless they say otherwise; changes in a name come on top.
UniProt Q7KN62: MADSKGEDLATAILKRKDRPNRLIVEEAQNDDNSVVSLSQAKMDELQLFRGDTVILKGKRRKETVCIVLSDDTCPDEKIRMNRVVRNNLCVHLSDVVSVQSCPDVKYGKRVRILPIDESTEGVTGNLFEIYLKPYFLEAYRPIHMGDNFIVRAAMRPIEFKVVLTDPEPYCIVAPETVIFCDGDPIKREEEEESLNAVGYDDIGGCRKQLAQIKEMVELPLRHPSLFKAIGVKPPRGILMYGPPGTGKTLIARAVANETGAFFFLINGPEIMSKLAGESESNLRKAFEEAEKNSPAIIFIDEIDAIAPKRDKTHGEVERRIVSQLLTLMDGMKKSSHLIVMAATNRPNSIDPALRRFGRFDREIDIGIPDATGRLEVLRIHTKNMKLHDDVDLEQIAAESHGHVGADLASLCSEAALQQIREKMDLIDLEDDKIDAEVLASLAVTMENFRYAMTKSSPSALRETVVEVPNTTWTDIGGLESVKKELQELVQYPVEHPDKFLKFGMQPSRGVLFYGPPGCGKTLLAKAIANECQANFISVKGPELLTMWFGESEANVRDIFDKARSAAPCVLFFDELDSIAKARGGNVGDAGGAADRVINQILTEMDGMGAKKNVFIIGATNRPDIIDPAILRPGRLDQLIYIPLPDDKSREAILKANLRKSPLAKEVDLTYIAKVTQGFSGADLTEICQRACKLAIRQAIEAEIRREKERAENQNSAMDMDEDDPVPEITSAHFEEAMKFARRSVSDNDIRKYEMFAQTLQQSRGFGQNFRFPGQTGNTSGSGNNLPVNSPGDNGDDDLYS

Key:
[1] = biological target: VCP^P134L-sfGFP (Drosophila VCP P134L tagged with sfGFP at the endogenous locus) (Drosophila) (UniProt Q7KN62); assay: co-IP; co-immunoprecipitation of endogenously expressed VCP with VCP-sfGFP from heterozygous (transheterozygote) flies
[2] = biological target: VCP^WT-sfGFP (Drosophila VCP tagged with sfGFP at the endogenous locus) (Drosophila) (UniProt Q7KN62); assay: as above

wild-type VCP (endogenous, untagged, Drosophila) (from UniProt Q7KN62 1-801)
binding [1]: binds
binding [2]: binds
